Source: paper PMC3871820
Results are given in words; binding and its absence hold for the method and conditions named.

Sequences of proteins named here, by UniProt entry; tags and fusion partners are left off.
UniProt Q9SJK7: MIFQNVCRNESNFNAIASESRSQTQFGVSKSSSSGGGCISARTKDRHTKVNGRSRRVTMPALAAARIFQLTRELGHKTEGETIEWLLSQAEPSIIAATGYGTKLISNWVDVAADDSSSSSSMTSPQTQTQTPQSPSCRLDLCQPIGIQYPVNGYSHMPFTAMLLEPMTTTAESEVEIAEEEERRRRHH
UniProt Q93Z00: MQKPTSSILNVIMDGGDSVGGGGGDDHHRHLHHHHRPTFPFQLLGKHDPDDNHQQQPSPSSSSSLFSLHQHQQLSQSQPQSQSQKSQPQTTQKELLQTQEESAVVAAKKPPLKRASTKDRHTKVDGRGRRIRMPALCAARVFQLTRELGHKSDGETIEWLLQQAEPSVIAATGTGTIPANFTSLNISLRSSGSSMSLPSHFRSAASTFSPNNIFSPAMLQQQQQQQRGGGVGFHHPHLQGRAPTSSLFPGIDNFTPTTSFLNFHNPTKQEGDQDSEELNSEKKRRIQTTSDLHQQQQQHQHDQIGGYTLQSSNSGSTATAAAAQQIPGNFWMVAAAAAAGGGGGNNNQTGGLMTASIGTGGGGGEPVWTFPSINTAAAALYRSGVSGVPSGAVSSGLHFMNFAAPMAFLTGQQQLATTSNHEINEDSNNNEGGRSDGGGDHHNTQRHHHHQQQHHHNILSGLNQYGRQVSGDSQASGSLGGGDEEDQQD
UniProt Q9LQF0: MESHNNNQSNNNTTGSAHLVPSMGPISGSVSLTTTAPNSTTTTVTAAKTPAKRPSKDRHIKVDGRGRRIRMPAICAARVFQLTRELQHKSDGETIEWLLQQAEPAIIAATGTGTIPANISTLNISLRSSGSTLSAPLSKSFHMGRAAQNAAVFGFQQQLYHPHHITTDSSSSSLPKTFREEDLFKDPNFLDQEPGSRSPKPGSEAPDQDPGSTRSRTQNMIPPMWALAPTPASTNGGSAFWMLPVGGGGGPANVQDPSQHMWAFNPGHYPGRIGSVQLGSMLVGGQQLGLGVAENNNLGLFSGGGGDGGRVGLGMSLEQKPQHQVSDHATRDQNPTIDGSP
UniProt Q9FMX2: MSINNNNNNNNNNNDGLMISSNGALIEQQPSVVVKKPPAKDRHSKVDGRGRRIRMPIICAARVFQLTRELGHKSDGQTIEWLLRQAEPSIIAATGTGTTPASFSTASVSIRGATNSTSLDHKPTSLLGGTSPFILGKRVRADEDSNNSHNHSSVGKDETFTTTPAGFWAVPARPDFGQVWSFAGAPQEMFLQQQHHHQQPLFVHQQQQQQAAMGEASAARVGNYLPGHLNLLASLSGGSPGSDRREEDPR
UniProt O64647: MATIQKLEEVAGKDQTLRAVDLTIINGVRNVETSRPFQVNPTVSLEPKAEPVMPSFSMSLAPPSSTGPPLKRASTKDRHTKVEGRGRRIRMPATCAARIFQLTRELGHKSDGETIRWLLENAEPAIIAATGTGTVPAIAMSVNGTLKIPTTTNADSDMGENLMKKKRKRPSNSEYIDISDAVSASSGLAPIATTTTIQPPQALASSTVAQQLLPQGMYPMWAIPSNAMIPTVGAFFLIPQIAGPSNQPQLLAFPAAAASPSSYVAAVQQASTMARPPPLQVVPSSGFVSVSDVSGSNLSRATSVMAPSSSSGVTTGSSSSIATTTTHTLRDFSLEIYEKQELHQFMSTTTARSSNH

What was measured:
Experiment in all cases: two-hybrid; matrix-based GAL4 yeast two-hybrid by mating (baits in PJ69-4alpha, preys in PJ69-4a); selection on SD-Leu-Trp-Ade or SD-Leu-Trp-His with 5 and 10 mM 3-amino-1,2,4-triazole; scored after 5 days at 30 °C; BD baits of TCP1, 2, 4, 10, 12, 18, 20 and 24 excluded for auto-activation; positive only if reproducible with at least two selection markers
[1] = molecular target: TCP11 (Arabidopsis thaliana) (UniProt Q9SJK7)
[2] = molecular target: TCP14 (Arabidopsis thaliana) (UniProt Q93Z00)
[3] = molecular target: TCP23 (Arabidopsis thaliana) (UniProt Q9LQF0)
[4] = molecular target: T1, TCP3 (Arabidopsis thaliana) (UniProt Q9MAH8)
T1 sequence: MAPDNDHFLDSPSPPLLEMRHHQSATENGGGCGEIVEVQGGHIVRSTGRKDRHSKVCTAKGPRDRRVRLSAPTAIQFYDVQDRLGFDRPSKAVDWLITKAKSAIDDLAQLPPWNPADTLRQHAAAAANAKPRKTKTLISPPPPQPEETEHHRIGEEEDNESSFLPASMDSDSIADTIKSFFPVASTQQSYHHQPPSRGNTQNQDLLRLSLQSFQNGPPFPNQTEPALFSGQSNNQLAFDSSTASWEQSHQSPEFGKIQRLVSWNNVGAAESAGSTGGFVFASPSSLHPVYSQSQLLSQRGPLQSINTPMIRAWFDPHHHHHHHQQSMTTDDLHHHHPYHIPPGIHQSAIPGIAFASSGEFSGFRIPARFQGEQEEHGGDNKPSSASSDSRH

[5] = molecular target: T2, TCP5 (Arabidopsis thaliana) (UniProt Q9FME3)
T2 sequence: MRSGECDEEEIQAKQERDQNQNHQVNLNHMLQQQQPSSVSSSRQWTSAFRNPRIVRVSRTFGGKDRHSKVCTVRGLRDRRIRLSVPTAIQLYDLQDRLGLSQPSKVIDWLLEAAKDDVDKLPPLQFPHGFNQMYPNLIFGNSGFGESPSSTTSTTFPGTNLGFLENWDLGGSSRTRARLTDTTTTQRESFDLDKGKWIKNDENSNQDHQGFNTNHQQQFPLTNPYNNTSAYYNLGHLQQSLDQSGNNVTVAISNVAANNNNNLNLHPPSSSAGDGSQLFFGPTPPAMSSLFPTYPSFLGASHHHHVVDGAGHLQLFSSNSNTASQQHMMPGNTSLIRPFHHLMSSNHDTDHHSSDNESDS

[6] = molecular target: T3, TCP6 (Arabidopsis thaliana) (UniProt Q9FLM6)
T3 sequence: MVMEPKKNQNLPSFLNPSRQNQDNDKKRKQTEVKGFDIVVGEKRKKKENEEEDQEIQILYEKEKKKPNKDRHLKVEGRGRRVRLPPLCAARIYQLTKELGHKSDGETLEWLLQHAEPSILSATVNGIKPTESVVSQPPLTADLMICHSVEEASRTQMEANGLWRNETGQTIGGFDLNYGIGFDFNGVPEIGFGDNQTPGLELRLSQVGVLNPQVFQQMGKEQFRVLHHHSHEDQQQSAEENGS

[7] = molecular target: TCP7 (Arabidopsis thaliana) (UniProt Q9FMX2)
[8] = molecular target: TCP9 (Arabidopsis thaliana) (UniProt O64647)

Measured: binding

TCP9 (from UniProt O64647 1-356)
no binding: all assays above
